# Reference: paper PMC7037359
# Protein sequences, listed by entry. Tags and fused reporters are not part of them. Residues count along the entry.
# UniProt Q13443, residues 29-819: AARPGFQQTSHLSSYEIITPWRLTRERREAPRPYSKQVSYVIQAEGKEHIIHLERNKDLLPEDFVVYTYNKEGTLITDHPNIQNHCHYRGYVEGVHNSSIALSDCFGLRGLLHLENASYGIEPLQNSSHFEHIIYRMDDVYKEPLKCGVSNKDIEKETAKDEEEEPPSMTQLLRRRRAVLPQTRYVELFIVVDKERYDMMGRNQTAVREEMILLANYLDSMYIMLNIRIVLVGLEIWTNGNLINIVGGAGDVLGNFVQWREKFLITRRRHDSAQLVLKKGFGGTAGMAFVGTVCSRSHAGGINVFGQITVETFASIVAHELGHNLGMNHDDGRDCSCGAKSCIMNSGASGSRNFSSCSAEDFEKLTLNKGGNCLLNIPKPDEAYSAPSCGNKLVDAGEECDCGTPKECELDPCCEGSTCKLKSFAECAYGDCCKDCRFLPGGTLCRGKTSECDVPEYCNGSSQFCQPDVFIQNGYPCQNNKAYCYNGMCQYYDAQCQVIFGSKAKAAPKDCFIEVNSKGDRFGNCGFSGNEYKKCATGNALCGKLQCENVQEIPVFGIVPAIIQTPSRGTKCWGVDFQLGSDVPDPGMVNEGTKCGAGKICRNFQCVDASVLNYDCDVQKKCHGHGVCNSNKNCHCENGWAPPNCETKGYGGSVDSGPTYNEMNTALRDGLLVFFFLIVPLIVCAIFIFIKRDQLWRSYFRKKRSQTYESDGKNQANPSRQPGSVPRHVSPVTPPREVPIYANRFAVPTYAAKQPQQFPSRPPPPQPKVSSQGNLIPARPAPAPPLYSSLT
# No constants are given. Whether binding was seen depends on the method and setting. In cells and extracts the contact can be indirect. Binding can be weak; no strength is given.
# Target: β-amyloid precursor protein carrying Swedish mutation (UniProt P05067)
# Test: co-IP; lysate of APPsw-transfected HeLa cells incubated without or with 1 or 5 μM E144 for 1 h at 37 °C; 300 μg total protein incubated with 2 μL APP antibody (6E10) for 2 h, washed 3 times with PBS; Western blot with ADAM9, ADAM10, ADAM17 and APP antibodies
sequence,measurement,value
A Disintegrin and Metalloproteinase 9 (from UniProt Q13443 29-819) (enzyme),binding,binds
